Laboratory results taken from publication doi:10.1101/2022.06.30.498164.

Chains of the proteins cited; added tags and fusions are not shown.
UniProt Q9VWE6: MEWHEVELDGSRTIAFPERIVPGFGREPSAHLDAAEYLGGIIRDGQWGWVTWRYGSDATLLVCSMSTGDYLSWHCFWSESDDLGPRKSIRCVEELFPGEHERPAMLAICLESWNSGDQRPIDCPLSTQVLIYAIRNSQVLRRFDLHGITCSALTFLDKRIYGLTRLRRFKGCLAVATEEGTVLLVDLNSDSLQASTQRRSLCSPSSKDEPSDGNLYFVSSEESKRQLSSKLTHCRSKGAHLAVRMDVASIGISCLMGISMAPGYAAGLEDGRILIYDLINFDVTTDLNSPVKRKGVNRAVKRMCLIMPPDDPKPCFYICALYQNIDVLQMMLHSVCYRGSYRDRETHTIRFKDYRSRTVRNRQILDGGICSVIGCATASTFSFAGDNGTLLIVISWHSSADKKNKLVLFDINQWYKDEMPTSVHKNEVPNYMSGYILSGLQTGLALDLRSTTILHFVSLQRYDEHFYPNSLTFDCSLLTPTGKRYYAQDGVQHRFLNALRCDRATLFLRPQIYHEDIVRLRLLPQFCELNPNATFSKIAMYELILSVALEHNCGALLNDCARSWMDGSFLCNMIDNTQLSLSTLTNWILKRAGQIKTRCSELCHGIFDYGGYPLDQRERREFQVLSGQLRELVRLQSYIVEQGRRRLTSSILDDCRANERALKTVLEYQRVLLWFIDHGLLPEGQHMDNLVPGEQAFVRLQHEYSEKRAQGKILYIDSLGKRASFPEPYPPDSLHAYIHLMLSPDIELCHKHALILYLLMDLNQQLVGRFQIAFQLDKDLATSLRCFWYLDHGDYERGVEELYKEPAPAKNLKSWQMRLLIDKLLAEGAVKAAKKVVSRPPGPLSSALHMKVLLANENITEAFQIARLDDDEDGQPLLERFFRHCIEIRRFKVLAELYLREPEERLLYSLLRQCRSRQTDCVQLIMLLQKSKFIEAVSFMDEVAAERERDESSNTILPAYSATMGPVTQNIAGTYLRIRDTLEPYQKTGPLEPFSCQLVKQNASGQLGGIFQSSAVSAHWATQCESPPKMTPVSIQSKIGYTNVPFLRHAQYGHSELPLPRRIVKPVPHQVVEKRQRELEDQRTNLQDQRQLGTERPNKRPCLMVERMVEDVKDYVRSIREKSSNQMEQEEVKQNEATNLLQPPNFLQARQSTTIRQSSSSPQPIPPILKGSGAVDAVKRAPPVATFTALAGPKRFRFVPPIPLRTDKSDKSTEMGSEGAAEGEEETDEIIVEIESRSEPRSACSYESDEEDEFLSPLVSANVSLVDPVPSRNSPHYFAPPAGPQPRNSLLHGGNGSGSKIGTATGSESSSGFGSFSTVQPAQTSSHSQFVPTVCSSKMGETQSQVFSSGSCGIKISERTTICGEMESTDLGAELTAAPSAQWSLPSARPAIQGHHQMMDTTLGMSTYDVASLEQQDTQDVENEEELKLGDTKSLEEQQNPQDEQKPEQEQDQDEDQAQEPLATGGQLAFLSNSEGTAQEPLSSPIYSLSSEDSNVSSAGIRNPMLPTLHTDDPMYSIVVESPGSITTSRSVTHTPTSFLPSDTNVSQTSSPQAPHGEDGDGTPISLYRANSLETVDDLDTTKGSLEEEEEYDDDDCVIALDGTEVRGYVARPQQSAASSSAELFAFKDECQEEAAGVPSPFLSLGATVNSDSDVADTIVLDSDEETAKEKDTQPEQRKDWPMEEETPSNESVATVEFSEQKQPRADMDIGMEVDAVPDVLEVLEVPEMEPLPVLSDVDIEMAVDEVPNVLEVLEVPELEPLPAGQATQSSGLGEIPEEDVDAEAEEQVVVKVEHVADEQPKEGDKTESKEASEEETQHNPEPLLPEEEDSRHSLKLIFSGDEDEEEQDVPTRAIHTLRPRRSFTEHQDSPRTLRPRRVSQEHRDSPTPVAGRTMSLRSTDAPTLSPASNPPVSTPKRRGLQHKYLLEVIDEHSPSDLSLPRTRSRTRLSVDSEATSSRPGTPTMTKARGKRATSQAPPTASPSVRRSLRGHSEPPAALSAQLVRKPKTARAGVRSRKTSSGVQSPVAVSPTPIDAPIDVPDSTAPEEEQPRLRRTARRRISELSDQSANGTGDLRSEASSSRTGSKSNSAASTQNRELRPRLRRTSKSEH

Tests used:
[1] = biological target: T1, Distal antenna (Dan), endogenous (Drosophila melanogaster (endogenous in embryos)) (UniProt Q9VBW6); assay: affinity purification with mass spectrometry
T1 sequence: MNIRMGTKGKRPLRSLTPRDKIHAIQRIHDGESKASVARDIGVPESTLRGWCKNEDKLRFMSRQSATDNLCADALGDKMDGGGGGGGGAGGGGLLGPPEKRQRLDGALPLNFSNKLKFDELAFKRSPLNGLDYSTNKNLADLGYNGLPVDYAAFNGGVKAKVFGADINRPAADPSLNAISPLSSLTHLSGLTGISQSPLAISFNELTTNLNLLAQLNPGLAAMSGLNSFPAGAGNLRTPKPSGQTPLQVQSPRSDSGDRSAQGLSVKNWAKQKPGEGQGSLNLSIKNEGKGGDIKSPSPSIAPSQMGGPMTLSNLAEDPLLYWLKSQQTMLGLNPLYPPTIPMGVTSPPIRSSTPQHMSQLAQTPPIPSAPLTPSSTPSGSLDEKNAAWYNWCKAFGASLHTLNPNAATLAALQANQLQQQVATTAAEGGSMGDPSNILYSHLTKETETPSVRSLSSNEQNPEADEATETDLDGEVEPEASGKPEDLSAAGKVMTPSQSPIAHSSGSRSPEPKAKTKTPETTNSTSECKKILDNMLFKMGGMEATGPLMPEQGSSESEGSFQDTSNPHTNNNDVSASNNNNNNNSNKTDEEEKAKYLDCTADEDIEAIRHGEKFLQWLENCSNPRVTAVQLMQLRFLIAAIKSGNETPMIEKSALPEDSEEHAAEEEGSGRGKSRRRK

[2] = biological target: T2, myc-tagged Distal antenna (Dan) (Drosophila melanogaster) (UniProt Q9VBW6); assay: affinity purification with mass spectrometry
T2 sequence: T1 sequence

With Elys (from UniProt Q9VWE6 1-2111) the binding [1] was “binds” and the binding [2] was “binds”.

These are yes or no findings as the source states them, for the method shown. Binding seen in cells or lysates may run through a third protein. These calls come from enrichment with a bait or labelling near it, and not all partners need be listed. For some assays here: Sequences can lack the tags named with a protein.
